In paper PMC4793267:
These are yes or no findings as the source states them, for the method shown. Binding seen in cells or lysates may run through a third protein. Some binding calls cover weakened binding; strength is not graded here. Where a sequence is shown, tags or fusion partners need not be part of it.

Amino acid sequences for entries named in this document (tags omitted). A change or cut given only in a name is not applied to a line headed by its entry. Chains listed by the source or under a name are the forms on record and can include a tag or linker.
UniProt O18381: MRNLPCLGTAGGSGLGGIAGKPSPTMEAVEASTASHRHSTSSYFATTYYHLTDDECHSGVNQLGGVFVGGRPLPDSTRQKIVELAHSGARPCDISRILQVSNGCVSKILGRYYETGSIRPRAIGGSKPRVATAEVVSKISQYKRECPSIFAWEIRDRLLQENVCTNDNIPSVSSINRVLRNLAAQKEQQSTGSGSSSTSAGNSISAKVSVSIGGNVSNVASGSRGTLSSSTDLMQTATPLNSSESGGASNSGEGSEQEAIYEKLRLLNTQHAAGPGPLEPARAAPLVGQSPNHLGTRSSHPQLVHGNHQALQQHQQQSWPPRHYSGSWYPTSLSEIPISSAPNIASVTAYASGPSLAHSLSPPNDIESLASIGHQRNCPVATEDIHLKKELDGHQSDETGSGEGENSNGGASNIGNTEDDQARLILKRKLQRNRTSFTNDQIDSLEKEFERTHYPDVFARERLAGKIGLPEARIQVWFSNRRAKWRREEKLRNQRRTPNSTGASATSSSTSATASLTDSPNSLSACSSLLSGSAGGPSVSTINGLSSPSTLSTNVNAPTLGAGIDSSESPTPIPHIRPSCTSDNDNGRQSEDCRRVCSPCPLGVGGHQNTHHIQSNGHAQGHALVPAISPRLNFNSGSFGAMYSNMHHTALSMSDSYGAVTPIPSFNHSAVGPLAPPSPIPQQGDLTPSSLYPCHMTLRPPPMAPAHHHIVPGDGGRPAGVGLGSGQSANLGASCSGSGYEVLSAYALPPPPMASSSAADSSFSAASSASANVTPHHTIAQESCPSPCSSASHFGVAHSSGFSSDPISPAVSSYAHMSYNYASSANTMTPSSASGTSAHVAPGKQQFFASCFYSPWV
HA-tagged Eyeless (Ey) (O18381, form named): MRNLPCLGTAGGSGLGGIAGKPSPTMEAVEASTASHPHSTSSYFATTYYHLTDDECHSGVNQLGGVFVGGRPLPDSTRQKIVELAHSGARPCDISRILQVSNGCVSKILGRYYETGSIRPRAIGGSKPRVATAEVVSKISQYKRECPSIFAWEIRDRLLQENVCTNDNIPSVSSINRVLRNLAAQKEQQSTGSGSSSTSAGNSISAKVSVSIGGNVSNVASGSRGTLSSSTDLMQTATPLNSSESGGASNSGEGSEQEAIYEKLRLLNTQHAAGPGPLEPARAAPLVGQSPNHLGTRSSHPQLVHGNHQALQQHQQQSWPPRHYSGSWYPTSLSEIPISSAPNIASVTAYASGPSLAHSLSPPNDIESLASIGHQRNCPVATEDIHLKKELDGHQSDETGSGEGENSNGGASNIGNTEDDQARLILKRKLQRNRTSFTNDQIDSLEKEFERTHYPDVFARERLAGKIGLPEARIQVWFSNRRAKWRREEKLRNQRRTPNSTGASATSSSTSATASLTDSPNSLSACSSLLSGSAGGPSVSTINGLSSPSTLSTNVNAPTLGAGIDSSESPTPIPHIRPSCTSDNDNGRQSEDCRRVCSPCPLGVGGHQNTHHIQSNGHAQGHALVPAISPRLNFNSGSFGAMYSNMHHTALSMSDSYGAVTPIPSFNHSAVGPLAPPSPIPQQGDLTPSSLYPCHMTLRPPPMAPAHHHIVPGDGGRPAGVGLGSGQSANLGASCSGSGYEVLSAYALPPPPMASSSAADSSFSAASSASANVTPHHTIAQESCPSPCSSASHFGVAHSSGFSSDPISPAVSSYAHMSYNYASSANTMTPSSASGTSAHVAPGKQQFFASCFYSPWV

T1: Flag-tagged Eyes absent (Eya), wild type (Drosophila) (UniProt Q05201)
T1 sequence: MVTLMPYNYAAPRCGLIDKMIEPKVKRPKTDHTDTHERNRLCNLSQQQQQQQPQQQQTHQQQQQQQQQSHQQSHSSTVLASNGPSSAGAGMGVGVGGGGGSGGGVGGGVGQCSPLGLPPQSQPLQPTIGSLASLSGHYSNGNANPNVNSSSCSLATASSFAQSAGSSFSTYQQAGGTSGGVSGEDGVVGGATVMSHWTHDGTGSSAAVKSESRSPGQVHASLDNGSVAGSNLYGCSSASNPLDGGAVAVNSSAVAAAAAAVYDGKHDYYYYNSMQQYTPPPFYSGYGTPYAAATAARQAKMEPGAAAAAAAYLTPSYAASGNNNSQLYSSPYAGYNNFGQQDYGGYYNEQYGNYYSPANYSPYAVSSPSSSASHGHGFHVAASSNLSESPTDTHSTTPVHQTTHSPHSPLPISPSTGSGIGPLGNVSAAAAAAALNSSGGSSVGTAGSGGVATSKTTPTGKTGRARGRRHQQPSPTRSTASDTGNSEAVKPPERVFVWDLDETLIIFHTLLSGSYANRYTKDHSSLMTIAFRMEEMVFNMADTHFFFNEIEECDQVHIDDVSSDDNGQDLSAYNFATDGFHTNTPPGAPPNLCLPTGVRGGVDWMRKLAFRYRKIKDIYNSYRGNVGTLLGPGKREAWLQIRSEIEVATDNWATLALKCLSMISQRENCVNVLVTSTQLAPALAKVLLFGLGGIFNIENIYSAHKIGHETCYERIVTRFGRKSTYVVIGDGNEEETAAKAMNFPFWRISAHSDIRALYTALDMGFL

B1: Myc-tagged Sine oculis (So) (protein, UniProt Q27350 1-416)
chain: MLQHPATDFYDLAAANAAAVLTARHTPPYSPTGLSGSVALHNNNNNNSSTSNNNNSTLDIMAHNGGGAGGGLHLNSSSNGGGGGGVVSGGGSGGRENLPSFGFTQEQVACVCEVLQQAGNIERLGRFLWSLPQCDKLQLNESVLKAKAVVAFHRGQYKELYRLLEHHHFSAQNHAKLQALWLKAHYVEAEKLRGRPLGAVGKYRVRRKFPLPRTIWDGEETSYCFKEKSRSVLRDWYSHNPYPSPREKRDLAEATGLTTTQVSNWFKNRRQRDRAAEHKDGSTDKQHLDSSSDSEMEGSMLPSQSAQHQQQQQQQQHSPGNSSGNNNGLHQQQLQHVAAEQGLQHHPHQPHPASNIANVAATKSSGGGGGGGVSAAAAAQMQMPPLTAAVAYSHLHSVMGAMPMTAMYDMGEYQHL

Target: T1, Flag-tagged Eyes absent (Eya), wild type (Drosophila)
Test: co-IP; Flag-Eya (wild type or mutant) co-expressed with HA-Ey, Myc-So or HA-Dac in S2 cells; lysis in Pierce IP lysis buffer; IP with anti-Flag agarose beads 2 h at 4 °C; western blot with anti-HA, anti-Myc, anti-Flag

Molecule | binding
HA-tagged Eyeless (Ey) (from UniProt O18381 1-857) | binds
B1 | binds
